The other results are listed elsewhere or left out.

Sequences of proteins named here, by UniProt entry; tags and fusion partners are left off. A change or cut given only in a name is not applied to a line headed by its entry.
UniProt Q13263: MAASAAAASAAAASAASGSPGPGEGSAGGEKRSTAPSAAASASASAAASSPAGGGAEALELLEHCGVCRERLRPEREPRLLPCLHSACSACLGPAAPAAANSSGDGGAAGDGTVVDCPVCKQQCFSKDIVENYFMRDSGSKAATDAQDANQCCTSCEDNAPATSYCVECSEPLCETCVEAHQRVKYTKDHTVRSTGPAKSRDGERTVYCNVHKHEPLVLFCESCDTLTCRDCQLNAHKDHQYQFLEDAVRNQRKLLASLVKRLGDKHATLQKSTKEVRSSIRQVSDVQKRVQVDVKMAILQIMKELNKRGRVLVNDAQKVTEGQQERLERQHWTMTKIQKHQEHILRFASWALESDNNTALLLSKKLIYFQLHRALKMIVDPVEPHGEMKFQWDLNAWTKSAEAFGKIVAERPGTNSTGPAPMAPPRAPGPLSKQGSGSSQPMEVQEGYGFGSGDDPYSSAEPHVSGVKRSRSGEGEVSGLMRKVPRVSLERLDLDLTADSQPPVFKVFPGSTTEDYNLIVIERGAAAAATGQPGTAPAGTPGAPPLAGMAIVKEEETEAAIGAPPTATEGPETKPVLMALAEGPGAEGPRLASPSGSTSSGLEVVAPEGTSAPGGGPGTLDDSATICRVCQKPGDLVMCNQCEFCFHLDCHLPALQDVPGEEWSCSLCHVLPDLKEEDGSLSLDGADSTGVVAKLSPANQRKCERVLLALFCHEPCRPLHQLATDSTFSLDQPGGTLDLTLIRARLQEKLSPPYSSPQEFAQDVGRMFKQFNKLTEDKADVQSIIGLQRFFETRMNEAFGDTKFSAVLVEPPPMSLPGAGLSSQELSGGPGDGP
UniProt Q16762: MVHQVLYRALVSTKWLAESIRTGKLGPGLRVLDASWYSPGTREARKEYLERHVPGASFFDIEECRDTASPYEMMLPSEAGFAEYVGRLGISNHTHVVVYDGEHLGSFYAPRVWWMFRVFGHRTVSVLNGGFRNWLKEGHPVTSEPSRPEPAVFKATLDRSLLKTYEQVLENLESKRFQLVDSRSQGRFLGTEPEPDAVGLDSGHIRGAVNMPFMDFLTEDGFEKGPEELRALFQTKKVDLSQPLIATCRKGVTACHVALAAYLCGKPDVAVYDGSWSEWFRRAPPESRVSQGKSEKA
UniProt Q8WWH5: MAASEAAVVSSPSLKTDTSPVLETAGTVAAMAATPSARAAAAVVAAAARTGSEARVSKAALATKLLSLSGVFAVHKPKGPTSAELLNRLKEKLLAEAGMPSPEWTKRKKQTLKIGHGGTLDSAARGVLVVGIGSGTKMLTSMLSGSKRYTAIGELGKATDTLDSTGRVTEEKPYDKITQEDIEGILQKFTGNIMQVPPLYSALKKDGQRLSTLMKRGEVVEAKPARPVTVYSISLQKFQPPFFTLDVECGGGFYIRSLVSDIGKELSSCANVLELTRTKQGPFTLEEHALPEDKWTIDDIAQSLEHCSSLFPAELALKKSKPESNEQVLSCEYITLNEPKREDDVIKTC
UniProt Q6PGP7, whole entry, looked up: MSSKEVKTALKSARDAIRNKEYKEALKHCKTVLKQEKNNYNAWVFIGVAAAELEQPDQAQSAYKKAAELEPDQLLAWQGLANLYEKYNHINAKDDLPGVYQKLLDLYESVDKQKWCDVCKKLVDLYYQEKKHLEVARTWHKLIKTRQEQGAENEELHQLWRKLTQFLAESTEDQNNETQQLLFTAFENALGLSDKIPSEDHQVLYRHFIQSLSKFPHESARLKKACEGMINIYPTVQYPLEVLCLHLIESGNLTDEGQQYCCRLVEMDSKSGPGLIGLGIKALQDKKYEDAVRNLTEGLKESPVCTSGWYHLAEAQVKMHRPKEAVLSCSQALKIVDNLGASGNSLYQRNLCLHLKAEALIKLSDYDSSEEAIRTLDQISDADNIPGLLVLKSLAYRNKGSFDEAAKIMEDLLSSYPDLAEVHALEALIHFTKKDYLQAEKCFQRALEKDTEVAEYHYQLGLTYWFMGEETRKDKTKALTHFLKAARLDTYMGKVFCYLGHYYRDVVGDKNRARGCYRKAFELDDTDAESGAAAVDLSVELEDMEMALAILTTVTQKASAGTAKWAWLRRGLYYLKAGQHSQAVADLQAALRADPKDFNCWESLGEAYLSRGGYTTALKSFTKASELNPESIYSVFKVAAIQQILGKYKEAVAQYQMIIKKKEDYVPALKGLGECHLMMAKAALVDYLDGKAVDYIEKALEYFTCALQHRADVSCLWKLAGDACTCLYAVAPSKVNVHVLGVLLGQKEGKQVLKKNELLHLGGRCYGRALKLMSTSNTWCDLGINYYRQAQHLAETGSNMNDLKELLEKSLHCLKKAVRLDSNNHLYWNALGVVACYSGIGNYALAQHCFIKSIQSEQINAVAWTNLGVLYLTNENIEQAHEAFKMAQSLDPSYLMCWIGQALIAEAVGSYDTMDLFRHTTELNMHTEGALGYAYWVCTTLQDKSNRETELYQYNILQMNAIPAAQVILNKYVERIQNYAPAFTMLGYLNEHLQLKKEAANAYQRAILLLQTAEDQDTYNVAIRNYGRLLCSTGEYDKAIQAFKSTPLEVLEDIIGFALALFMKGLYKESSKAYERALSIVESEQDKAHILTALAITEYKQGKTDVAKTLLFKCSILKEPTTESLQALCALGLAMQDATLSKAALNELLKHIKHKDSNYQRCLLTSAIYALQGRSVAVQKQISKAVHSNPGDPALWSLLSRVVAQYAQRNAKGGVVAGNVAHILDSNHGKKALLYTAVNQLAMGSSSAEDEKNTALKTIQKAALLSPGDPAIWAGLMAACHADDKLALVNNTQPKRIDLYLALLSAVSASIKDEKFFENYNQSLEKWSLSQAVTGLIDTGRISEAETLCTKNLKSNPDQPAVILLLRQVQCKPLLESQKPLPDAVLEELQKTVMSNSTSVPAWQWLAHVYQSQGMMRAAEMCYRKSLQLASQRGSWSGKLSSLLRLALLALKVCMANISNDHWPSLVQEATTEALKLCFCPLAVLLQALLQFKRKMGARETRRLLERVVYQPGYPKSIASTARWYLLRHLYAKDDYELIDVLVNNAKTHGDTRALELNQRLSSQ
UniProt Q86TN4: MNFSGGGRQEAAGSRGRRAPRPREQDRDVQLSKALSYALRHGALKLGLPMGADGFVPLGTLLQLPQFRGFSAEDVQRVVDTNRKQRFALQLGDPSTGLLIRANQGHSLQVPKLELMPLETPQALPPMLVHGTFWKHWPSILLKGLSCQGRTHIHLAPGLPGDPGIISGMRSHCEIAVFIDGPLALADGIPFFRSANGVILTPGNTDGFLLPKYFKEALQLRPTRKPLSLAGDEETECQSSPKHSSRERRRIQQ
UniProt Q5R3I4: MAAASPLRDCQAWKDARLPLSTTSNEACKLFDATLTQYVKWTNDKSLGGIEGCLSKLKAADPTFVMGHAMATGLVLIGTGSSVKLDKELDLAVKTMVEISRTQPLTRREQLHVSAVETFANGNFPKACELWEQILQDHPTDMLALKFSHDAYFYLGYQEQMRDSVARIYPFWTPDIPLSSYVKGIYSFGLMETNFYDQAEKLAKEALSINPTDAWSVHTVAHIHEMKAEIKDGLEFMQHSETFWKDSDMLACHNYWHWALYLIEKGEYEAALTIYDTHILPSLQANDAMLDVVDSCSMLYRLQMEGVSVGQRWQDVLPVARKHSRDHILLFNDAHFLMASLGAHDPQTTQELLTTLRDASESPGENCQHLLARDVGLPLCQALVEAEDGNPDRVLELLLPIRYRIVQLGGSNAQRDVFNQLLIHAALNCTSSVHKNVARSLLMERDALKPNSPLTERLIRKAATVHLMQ
UniProt Q969E8: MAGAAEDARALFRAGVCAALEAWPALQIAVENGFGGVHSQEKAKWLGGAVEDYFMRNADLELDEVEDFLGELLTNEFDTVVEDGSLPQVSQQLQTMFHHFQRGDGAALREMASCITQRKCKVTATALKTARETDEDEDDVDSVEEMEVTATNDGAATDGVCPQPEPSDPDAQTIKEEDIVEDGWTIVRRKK
UniProt Q9NXH9: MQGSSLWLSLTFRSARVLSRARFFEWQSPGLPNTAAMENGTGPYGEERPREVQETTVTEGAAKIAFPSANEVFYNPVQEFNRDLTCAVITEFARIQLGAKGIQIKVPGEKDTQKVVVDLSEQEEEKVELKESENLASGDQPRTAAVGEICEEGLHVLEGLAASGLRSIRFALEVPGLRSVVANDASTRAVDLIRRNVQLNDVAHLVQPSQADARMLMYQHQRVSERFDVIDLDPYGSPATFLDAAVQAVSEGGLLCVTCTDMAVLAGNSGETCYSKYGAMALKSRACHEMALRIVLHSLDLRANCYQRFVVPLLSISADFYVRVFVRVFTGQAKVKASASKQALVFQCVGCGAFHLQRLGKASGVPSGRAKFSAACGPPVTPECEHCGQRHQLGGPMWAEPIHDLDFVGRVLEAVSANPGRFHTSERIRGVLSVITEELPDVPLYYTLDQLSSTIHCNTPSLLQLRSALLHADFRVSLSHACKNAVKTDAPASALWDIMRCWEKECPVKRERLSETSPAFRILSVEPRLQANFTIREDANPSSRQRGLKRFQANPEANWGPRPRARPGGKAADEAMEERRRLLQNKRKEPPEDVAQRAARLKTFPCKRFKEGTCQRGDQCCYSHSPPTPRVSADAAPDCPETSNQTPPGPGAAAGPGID
UniProt Q8NG06: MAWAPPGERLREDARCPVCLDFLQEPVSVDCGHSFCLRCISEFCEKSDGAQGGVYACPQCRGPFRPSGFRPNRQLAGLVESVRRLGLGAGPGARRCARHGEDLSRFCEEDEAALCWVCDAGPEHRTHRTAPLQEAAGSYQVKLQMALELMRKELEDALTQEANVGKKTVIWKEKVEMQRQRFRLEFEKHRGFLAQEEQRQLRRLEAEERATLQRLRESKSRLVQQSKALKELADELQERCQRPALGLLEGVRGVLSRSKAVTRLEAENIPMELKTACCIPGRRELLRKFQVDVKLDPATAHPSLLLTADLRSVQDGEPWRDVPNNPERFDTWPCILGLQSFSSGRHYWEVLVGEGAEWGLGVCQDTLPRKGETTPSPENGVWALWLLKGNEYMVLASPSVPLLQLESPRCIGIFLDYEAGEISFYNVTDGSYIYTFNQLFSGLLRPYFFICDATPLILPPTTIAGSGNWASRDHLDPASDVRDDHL
UniProt O95801: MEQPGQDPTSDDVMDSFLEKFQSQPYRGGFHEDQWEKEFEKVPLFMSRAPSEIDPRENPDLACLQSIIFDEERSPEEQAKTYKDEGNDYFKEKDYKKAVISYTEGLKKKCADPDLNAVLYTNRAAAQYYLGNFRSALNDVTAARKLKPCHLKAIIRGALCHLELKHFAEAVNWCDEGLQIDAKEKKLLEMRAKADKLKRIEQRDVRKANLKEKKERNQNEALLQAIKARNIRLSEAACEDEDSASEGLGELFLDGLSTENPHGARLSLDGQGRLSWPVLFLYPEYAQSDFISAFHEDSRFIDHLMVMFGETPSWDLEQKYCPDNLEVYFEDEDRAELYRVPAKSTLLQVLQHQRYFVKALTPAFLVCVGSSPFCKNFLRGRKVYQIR
UniProt Q9BRZ2: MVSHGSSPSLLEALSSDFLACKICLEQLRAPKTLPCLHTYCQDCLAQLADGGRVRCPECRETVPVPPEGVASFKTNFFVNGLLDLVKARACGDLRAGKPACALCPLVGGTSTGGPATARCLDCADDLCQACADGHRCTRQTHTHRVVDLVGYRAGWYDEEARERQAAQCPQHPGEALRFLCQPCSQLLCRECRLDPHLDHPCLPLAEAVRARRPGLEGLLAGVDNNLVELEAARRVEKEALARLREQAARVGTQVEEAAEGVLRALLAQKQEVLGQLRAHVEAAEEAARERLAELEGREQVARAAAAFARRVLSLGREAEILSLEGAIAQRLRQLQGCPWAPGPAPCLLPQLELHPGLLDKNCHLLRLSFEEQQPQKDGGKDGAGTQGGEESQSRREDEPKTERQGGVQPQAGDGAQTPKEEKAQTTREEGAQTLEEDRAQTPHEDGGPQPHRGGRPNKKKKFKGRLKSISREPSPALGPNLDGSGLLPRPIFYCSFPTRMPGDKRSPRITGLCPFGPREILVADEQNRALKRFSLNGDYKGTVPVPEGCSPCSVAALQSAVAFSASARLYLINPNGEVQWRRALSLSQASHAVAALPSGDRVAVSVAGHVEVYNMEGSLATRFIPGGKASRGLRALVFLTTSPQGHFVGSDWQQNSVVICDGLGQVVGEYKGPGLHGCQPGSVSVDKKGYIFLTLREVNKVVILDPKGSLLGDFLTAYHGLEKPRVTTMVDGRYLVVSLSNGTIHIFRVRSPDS
UniProt O43715: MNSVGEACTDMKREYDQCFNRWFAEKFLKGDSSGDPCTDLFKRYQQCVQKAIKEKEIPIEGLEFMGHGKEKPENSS

Compound in the experiment: Cc1nc(Nc2ncc(C(=O)Nc3c(C)cccc3Cl)s2)cc(N2CCN(CCO)CC2)n1 [dasatinib]
Nature of the experiment: log2 fold change, soluble protein after heating vs DMSO (PISA); higher = thermal stabilisation; K562 lysate, 10 uM; active = over 0.2 and 3.5 SD of the protein, either way, in both replicates (recomputed). The essentials:
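Values give the log-two fold change in thermal stability against solvent controls, from duplicates. Crude K562 extract at 1 mg/mL protein, made by dounce homogenisation in PBS pH 7.4 with 1 mM MgCl2, was treated with 10 μM compound for 30 min. After 3 min heating across 48°C-58°C, aliquots were pooled, adjusted to 0.5% NP-40 at 4°C and centrifuged at 21,000xg for 90 min. The supernatant was measured by TMTpro 16plex LC-MS/MS with channel sums equalised.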
Take TRIM32 (UniProt Q13049): the log2 fold change was inactive: -0.048.
Turning to TRIM28 (UniProt Q13263), the log2 fold change was inactive: -0.005.
In the case of TST (UniProt Q16762), the log2 fold change is inactive: -0.012.
The figure for TRMT1L (UniProt Q7Z2T5) is inactive: -0.021; for TRUB1 (UniProt Q8WWH5) it is inactive: -0.064; for TTC37 (UniProt Q6PGP7) it is inactive: -0.163.
TRPT1 isoform 4 (UniProt Q86TN4): the log2 fold change is inactive: 0.021.
TTC38 (UniProt Q5R3I4): the log2 fold change is inactive: 0.029.
TSPYL1 (UniProt Q9H0U9): the log2 fold change was inactive: 0.04.
Regarding TRAPPC2 isoform 3 (UniProt P0DI81), the log2 fold change was inactive: 0.055.
On to TRAPPC11 (UniProt Q7Z392), for which the log2 fold change is inactive: -0.028.
In the case of TSR2 (UniProt Q969E8), the log2 fold change is inactive: 0.001.
Consider TRMT1 (UniProt Q9NXH9), for which the log2 fold change was inactive: -0.014.
As to TTLL12 (UniProt Q14166), the log2 fold change is inactive: -0.028.
Take TTC12 isoform 2 (UniProt Q9H892): the log2 fold change was inactive: -0.143.
In the case of TRIM58 (UniProt Q8NG06), the log2 fold change is inactive: 0.042.
TTC4 (UniProt O95801): the log2 fold change is inactive: 0.025.
As for TRIM56 (UniProt Q9BRZ2), the log2 fold change was inactive: -0.073.
On to TRIP11 (UniProt Q15643), for which the log2 fold change was inactive: 0.011.
As to TRIM24 (UniProt O15164), the log2 fold change is inactive: -0.003.
As to TRIAP1 (UniProt O43715), the log2 fold change is inactive: 0.031.
As for TSC22D2 (UniProt O75157), the log2 fold change was inactive: -0.016.
Take TSEN15, A0A2U3TZM3: the log2 fold change is inactive: 0.024.

For the origin of these results see the supplement of paper PMC10849652.
